One compound from patent US20060216336A1, “Transdermal therapeutic system for Parkinson's Disease” (priority 2002, published 2006) can be followed below.

SMILES strings stand for the structures. Further values from the same series stand in other lists.

The data set can be described thus: Multiple dose trial with rotating patch application sites in early-stage Parkinson's disease: rotigotine pharmacokinetics (Example 4). From the text:
Each day, a fresh patch was placed on a new skin site (abdomen, flank, upper arm, shoulder, thigh, hip) in a rotating order. The silicone transdermal patches were made in accordance with the teachings of U.S. Patent Application Publication No. US 2003/0026830 at paragraphs 38-42, U.S. Patent Application Publication No. US 2003/0027793 at paragraphs 37-41 and U.S. Pat. No. 6,884,434, columns 5-6, Example 2 and comprised the following layers and components:
The trial consisted of an Eligibility Assessment (EA), a 24-day Titration Phase (4.5 to 18.0 mg/day doses; incremental increases of 4.5mg/day every 6 days), a 6-day Maintenance Phase (18.0 mg/day dose), a 6-day De-escalation Phase (13.5/9.0/4.5mg/day decreasing dose every 2 days), and a Safety Follow-Up visit 2 days following the last dose.
The silicone transdermal patches were made in accordance with the teachings of U.S. Patent Application Publication No. US 2003/0026830 at paragraphs 3842 and U.S. Patent Application Publication No. US 2003/0027793 at paragraphs 3741 comprised the following layers and components as disclosed above
The 18.0 mg/day dose used 2×20 cm^2 patches. Initial doses were 4.5 mg/day with weekly increases of 4.5 mg/day to a maximum target dose of 18.0 mg/day.

Where [1] appears, read: Application Site = Flank, Day 27, 23.5 H.

For `CCCN(CCc1cccs1)[C@H]1CCc2c(O)cccc2C1` [rotigotine, (6S)-6{propyl[2-(2-thienyl)ethyl]amino}-5,6,7,8-tetrahydro-1-naphthalenol], the “rotigotine plasma concentrations, Median” value reads like this: (Application Site = Abdomen, Day 27, 23.5 H) 0.7200 ng/mL; under setting [1], 0.6040 ng/mL. In addition, the “rotigotine plasma concentrations, Geo. Mean” value is, setting by setting: under setting [1], 0.7457 ng/mL; (Application Site = Flank, Day 30, 23.5 H) 0.8877 ng/mL. The “rotigotine plasma concentrations, Mean” value under setting [1] is reported as 1.1897 ng/mL. The “rotigotine plasma concentration Geo. Mean” value (Hip, Days 27 & 30 Combined, 23.5 H) came to 0.8144 ng/mL; the “rotigotine plasma concentration Geo. Mean” value (Shoulder, Day 27, 23.5 H) is 0.7901 ng/mL; the “rotigotine plasma concentration Geo. Mean” value (Thigh, Day 27, 23.5 H) amounted to 0.6187 ng/mL; the “rotigotine plasma concentration Geo. Mean” value (Upper Arm, Day 27, 23.5 H) turned out to be 0.7423 ng/mL.
